Measured values reported in patent publication US20250388936A1, “METHODS AND CELLS FOR THE PRODUCTION OF FLUORINATED COMPOUNDS” (priority 2022, published 2025).

What was measured:
[1] = Cell-free extracts expressing flA1, pfs and kinBt incubated with SAM and NaF, LC-MS; format: biochemical, P. putida KT2440::FRS-T7RNAP; conditions: 20 h incubation with SAM and NaF, flA1, pfs and kinBt under PT7
[2] = Cell-free extracts incubated with 5′-FDA, 19F-NMR; format: biochemical, P. putida KT2440::FRS-T7RNAP
[3] = nucleosidase and kinase (phosphorylation bypass), isomerase and aldolase, 5′-FDA as substrate

Structure (SMILES) | fluorometabolite found by LC-MS [1] | fluorometabolite detected by 19F-NMR ([2]; isomerase and aldolase with PNP from Streptomyces sp. strain MA37, 5′-FDA as substrate) | fluorometabolite detected by 19F-NMR [2, 3]
Nc1ncnc2c1ncn2[C@@H]1O[C@H](CF)[C@@H](O)[C@H]1O [5′-FDA, 5′-fluoro-5′-deoxyadenosine] | no 5′-FDA is detected | – | –
O=C[C@H](O)[C@H](O)[C@H](O)CF [5′-FDR, 5′-fluorodeoxyribose] | some residual 5′-FDR is also found | – | –
O=P(O)(O)OC1O[C@H](CF)[C@@H](O)[C@H]1O (stereo partly drawn) [5′-FDRP, 5′-fluoro-5′-deoxy-D-ribose 1-phosphate] | most of it converted into the final product 5′-FDRP | – | –
O=C(O)CF [FAc, fluoroacetate] | – | could be detected | could be detected
O=CCF [FAld, fluoroacetaldehyde] | – | – | could be detected
